Measurements reported in PubChem BioAssay AID1224830 (NIAID, 2016)

Purpose: 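Host factors that control LPS-induced TNF expression in human macrophages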 (primary screen)
Cell system: human THP-1 monocytic leukaemia cells, TNF dual-luciferase reporter clone, PMA-differentiated to macrophage-like cells
Knock-down reagent: siRNA pool against human genes, 50 nM
Timing: LPS for 4 h, given about 3 days after siRNA transfection
Conditions: bacterial LPS (TLR4 ligand), 10 ng/ml
Measurement: 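TNF firefly reporter luminescence divided by renilla, normalised to the plate median, then turned into a robust z-score for each replicate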
Reading the numbers: TNF reporter robust z-score: higher = stronger TNF reporter response to LPS
Hit rule: 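Each well counts as active if its z-score is over 2.8 or under -1.5; controls are left without a call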
Here is a random part of about 18,000 reagents. About 2,900 of all reagents (16%) were called active. 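Calls are made per well; low scores hint the gene aids the LPS response, high scores that it dampens it.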 Repeated entries: four replicate wells of each siRNA pool. Reagent sequences are not shown.

UTP4 showed TNF reporter robust z-score -0.04; inactive.
Knock-down of UTP4 gave: TNF reporter robust z-score 0.45; inactive.
With knock-down of UTP4, the record shows TNF reporter robust z-score -1.34; inactive.
UTP4 showed TNF reporter robust z-score -0.69; inactive.
For FAM133A, the entry reads TNF reporter robust z-score -0.52; inactive.
Against FAM133A the deposit lists TNF reporter robust z-score -0.74; inactive.
Silencing of FAM133A resulted in: TNF reporter robust z-score 0.16; inactive.
FAM133A showed TNF reporter robust z-score 0.62; inactive.
With knock-down of SLC28A2, the screen gave TNF reporter robust z-score -0.6; inactive.
With knock-down of SLC28A2 the results were TNF reporter robust z-score 1.12; inactive.
Against SLC28A2, the values are TNF reporter robust z-score -0.19; inactive.
SLC28A2 gave TNF reporter robust z-score 0.18; inactive.
After knock-down of BIRC3, the screen gave TNF reporter robust z-score -0.17; inactive.
Depletion of BIRC3 gave: TNF reporter robust z-score 1.47; inactive.
Silencing of BIRC3 resulted in: TNF reporter robust z-score 1.15; inactive.
BIRC3 scored TNF reporter robust z-score 0.08; inactive.
For OLIG1 the deposit lists TNF reporter robust z-score 0.61; inactive.
OLIG1 showed TNF reporter robust z-score 0.65; inactive.
Depletion of OLIG1 came out at: TNF reporter robust z-score 1.2; inactive.
With knock-down of OLIG1, the screen gave TNF reporter robust z-score 6.56; active.
MBD3L2 scored TNF reporter robust z-score 0.51; inactive.
Depletion of MBD3L2 resulted in: TNF reporter robust z-score 0.36; inactive.
Depletion of MBD3L2 gave: TNF reporter robust z-score 2.21; inactive.
MBD3L2 gave TNF reporter robust z-score 1.49; inactive.
Against HEYL, the values are TNF reporter robust z-score 0.48; inactive.
Silencing of HEYL resulted in: TNF reporter robust z-score 0.91; inactive.
Depletion of HEYL came out at: TNF reporter robust z-score 0.46; inactive.
Against HEYL, the entry reads TNF reporter robust z-score 1.89; inactive.
SLC26A6 scored TNF reporter robust z-score -0.09; inactive.
SLC26A6 gave TNF reporter robust z-score -0.13; inactive.
With knock-down of SLC26A6, the record shows TNF reporter robust z-score -1.05; inactive.
With knock-down of SLC26A6, the screen gave TNF reporter robust z-score 2.06; inactive.
For DRICH1, the entry reads TNF reporter robust z-score 1.78; inactive.
Against DRICH1 the deposit lists TNF reporter robust z-score 0.95; inactive.
With knock-down of DRICH1, the screen gave TNF reporter robust z-score 1.52; inactive.
DRICH1 scored TNF reporter robust z-score 1.56; inactive.
Against EN2, the values are TNF reporter robust z-score 0.61; inactive.
After knock-down of EN2, the screen gave TNF reporter robust z-score 1.72; inactive.
EN2 showed TNF reporter robust z-score 0.1; inactive.
Against EN2 the deposit lists TNF reporter robust z-score 2.85; active.
With knock-down of PPOX, the screen gave TNF reporter robust z-score -0.29; inactive.
PPOX scored TNF reporter robust z-score -0.49; inactive.
For PPOX, the values are TNF reporter robust z-score 1.72; inactive.
APOBR showed TNF reporter robust z-score 0.33; inactive.
Silencing of APOBR came out at: TNF reporter robust z-score 0.09; inactive.
Silencing of APOBR came out at: TNF reporter robust z-score 0.07; inactive.
With knock-down of APOBR, the screen gave TNF reporter robust z-score 0.25; inactive.

Laid out differently: results already given
gene,TNF reporter robust z-score,Call
EN2,0.61,inactive
EN2,1.72,inactive
EN2,0.1,inactive
EN2,2.85,active
PPOX,-0.29,inactive
